Among all 390,000 compounds or so, about 4,000 (1%) were called active. The inconclusive results got no clear call from the source; some entries with a clear call stand among them for comparison. Calls come from the whole dose curve; as a rule, active = well fitted inhibition curve with a large enough effect; inconclusive = small, poorly fitted or top-dose-only effect, or another doubt; inactive = no such curve, though single readings can be large or run the other way. Potencies of inconclusive entries are doubtful fits and often do not repeat.
target: DNA polymerase iota (Homo sapiens) (UniProt Q9UNA4); test: qHTS for Inhibitors of Polymerase Iota; details: Pol iota fluorescent replication assay, 10 min; series mostly up to 115 µM; activity, negative = inhibition: at the top concentration
Method in brief: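 Fluorescent replication assay read twice, at 0 min and 10 min after adding 50 nM (final) substrate. Enzyme (10 nM) and compounds were first incubated 15 min at room temperature; enzyme-free buffer wells were negative controls.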
Potency is the fitted concentration of half-maximal effect.

The chains behind the UniProt entries cited, without tags or fusion partners. Where a name states a change or a piece, a line headed by the entry shows the natural chain unless it says otherwise.
UniProt Q9UNA4: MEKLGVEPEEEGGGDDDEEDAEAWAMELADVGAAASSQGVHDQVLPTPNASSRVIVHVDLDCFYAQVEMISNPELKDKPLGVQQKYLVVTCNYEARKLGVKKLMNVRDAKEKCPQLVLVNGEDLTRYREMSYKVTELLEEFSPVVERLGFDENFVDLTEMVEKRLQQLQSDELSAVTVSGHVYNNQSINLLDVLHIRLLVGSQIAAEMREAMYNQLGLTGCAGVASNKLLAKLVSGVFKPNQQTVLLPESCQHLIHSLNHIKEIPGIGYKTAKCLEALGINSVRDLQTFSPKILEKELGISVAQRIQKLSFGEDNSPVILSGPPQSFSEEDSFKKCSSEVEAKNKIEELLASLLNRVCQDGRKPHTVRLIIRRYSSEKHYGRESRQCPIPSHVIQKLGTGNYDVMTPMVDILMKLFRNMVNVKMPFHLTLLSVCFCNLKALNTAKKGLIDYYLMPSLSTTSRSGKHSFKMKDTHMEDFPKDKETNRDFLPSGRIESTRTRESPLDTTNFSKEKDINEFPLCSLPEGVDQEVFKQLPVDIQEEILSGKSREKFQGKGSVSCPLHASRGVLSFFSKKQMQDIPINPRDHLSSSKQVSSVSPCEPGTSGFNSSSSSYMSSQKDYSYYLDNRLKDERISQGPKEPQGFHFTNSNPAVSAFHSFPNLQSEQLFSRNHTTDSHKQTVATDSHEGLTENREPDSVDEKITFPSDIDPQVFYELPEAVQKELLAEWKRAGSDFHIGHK

| Compound | Potency | activity, negative = inhibition |
| --- | --- | --- |
| O=C(N/N=C/c1cccn1-c1cccc(C(=O)O)c1)Nc1ccccc1 | inconclusive: 50.1 µM [inhibitor, partial curve, poor fit] |  |
| CN(c1ccccc1)S(=O)(=O)c1ccc(NC(=O)COc2ccccc2)cc1 | inconclusive: 15.8 µM [inhibitor, partial curve, poor fit] |  |
| CCOC(=O)C(C)Sc1ccc2nnc(-c3ccc(OCC)cc3)n2n1 (stereo unspecified) | inconclusive: 100 µM [inhibitor, single point] |  |
| CCCNC(=O)c1ccc2c(=O)c(O)c(C)[nH]c2c1 | inconclusive: 22.4 µM [inhibitor, single point] |  |
| Cc1cccc(NC(=O)C2CCCN2C(=O)Oc2ccccc2)c1 (stereo unspecified) | inconclusive: 112 µM [inhibitor, single point] |  |
| Cc1ccc2c(=O)cc(C(=O)Nc3nnc(C)s3)oc2c1 | inconclusive: 79.4 µM [inhibitor, partial curve] |  |
| C=CCOCCN1C(=O)C2C3C=CC(C2C1=O)C1C2C(=O)N(CCOCC=C)C(=O)C2C31 (stereo unspecified) | active: 28.2 µM |  |
| CNC(=O)c1ccc2nc(-c3ccccc3)c(-c3ccccc3)nc2c1 |  | inactive: -0.914% |
| O=C1CSC(=S)N1c1cccc(O)c1 | inconclusive: 14.1 µM [inhibitor, full curve, poor fit] |  |
| COc1cc2nc(N(CCCN(C)C)C(=O)c3ccc(S(=O)(=O)N4CCc5ccccc54)cc3)sc2cc1OC | inconclusive: 17.8 µM [inhibitor, partial curve, poor fit] |  |
| CC1CCc2nc3ncn(CC(=O)Nc4cccc(C#N)c4)c(=O)c3cc2C1 (stereo unspecified) |  | inactive: -1.92% |
| COc1ccc(-c2nc3c(c(=O)[nH]c(=O)n3Cc3ccccc3)n2C)cc1 | inconclusive: 4.47 µM [inhibitor, partial curve, poor fit] |  |
| CCC1CCCCN1CCCNC(=O)CCCNC(=O)Cn1cnc2sc3c(c2c1=O)CCCC3 (stereo unspecified) | inconclusive: 0.631 µM [inhibitor, full curve, poor fit] |  |
| CCOc1cc(/C=C/C(=O)OCC(=O)NCc2ccco2)cc(Cl)c1OC | inconclusive: 25.1 µM [inhibitor, partial curve, poor fit] |  |
| CCc1cc2c(-c3ccccc3)cc(=O)oc2cc1OC(C)C(=O)O (stereo unspecified) |  | inactive: 1.51% |
| O=C1/C(=C/c2cccnc2)SC(=S)N1C1CCS(=O)(=O)C1 (stereo unspecified) |  | inactive: 16.7% |
| COc1ccccc1NC(=O)Nc1nc(CC(=O)N2CCN(c3ccccc3)CC2)cs1 | inconclusive: 89.1 µM [inhibitor, partial curve, poor fit] |  |
| O=C1C(Cl)=C(NCCN2CCCCC2)C(=O)c2ccccc21 | inconclusive: 35.5 µM [inhibitor, partial curve, poor fit] |  |
| CCOC(=O)c1oc2ccccc2c1NC(=O)Cc1cccs1 |  | inactive: -4.54% [at 58.9 µM] |
| COc1ccc2c(C(=O)c3ccc(Cl)cc3)n(CCCC(N)=O)[n+]([O-])c2c1 | inconclusive: 2.51 µM [inhibitor, partial curve, poor fit] |  |
| CCOc1ccc(NC(=O)CCNC(=O)Cn2ccc3ccccc3c2=O)cc1 | inconclusive: 100 µM [inhibitor, single point] |  |
| CCc1ccccc1N(CC(=O)N1CCN(c2ccc(F)cc2)CC1)S(C)(=O)=O | inconclusive: 39.8 µM [inhibitor, single point] |  |

Three compounds already listed, arranged by heavy-atom count, falling:

| Compound | Potency | activity, negative = inhibition |
| --- | --- | --- |
| CCC1CCCCN1CCCNC(=O)CCCNC(=O)Cn1cnc2sc3c(c2c1=O)CCCC3 (stereo unspecified) | inconclusive: 0.631 µM [inhibitor, full curve, poor fit] |  |
| COc1ccc(-c2nc3c(c(=O)[nH]c(=O)n3Cc3ccccc3)n2C)cc1 | inconclusive: 4.47 µM [inhibitor, partial curve, poor fit] |  |
| O=C1CSC(=S)N1c1cccc(O)c1 | inconclusive: 14.1 µM [inhibitor, full curve, poor fit] |  |

Further structures follow:

| Compound | Potency | activity, negative = inhibition |
| --- | --- | --- |
| COC(=O)CNC(c1ccccc1)c1cc(Br)ccc1NC(=O)CCN1CCOCC1 (stereo unspecified) | inconclusive: 39.8 µM [inhibitor, partial curve, poor fit] |  |
| O=C1CN=C(Nc2ccccc2)N1Cc1cccs1 | inconclusive: 20 µM [inhibitor, single point] |  |
| COc1ccc(OC)c(S(=O)(=O)N2CCN(CC(O)CN3CCOCC3)CC2)c1 (stereo unspecified) | inconclusive: 79.4 µM [inhibitor, single point] |  |
| O=C(CCc1ccccc1)Nc1cc(C(F)(F)F)ccc1Cl | inconclusive: 10 µM [inhibitor, partial curve, poor fit] |  |
| Cc1nn(-c2ccc(Cl)cc2)c2nc(-c3cccnc3)cc(C(F)(F)F)c12 |  | inactive: 14.4% |
| CC1(C)Cc2c(C#N)c(N3CCN(C(=O)c4ccccc4)CC3)nc(-c3ccco3)c2CS1 | inconclusive: 39.8 µM [inhibitor, partial curve, poor fit] |  |
| COc1cc2c(NC3CCN(C)CC3)nc(N3CCCCC3)nc2cc1OCCOCCN(C)C | active: 50.1 µM |  |
| O=C(Cn1ccc(NC(=O)OCc2ccccc2)nc1=O)NCc1nc2ccccc2[nH]1 | inconclusive: 22.4 µM [inhibitor, full curve] |  |
| CC(C)(C)NC(=O)COc1ccc(S(=O)(=O)N2CCCC2)cc1 |  | inactive: 20.4% |
| COc1ccc(OC)c(CNC(=O)c2ccc(NC(=O)c3nsc4ccccc34)cc2)c1 | active: 89.1 µM |  |
| COc1ccc(NC(=O)c2sc(N3CCOCC3)nc2-c2ccccc2)c(OC)c1 |  | inactive: -0.489% |
| O=C(O)c1cccc(NC(=S)NC(=O)c2ccc(-c3ccc(Cl)cc3)o2)c1 | inconclusive: 39.8 µM [inhibitor, partial curve, poor fit] |  |
| Cc1ccc(CNC(=O)CN2C(=O)NC3(CC(C)CC(C)(C)C3)C2=O)cc1 (stereo unspecified) | inconclusive: 100 µM [inhibitor, single point] |  |
| Cc1ccc(C(=O)NCc2ccco2)cc1S(=O)(=O)N1CCCCC1 | inconclusive: 56.2 µM [inhibitor, partial curve, poor fit] |  |
| COc1cc(CC(=O)Nc2ncc(C)s2)cc(OC)c1OC | inconclusive: 39.8 µM [inhibitor, single point] |  |
| Cn1cc(C(=O)NCc2ccccc2Cl)c(=O)c2cc(S(=O)(=O)N3CCCCCC3)ccc21 |  | inactive: 21.6% |
| COc1cc(/C=C/C(=O)OCC(=O)NCCc2ccc(S(N)(=O)=O)cc2)ccc1OCC#N | inconclusive: 89.1 µM [inhibitor, partial curve, poor fit] |  |
| Cc1ccc(C(=O)OCc2nc3ccsc3c(=O)[nH]2)o1 | inconclusive: 44.7 µM [inhibitor, partial curve, poor fit] |  |
| O=C1NC2(CCCCCC2)C(=O)N1Cc1ccc(F)cc1Cl | inconclusive: 89.1 µM [inhibitor, single point] |  |
| Cc1cc(C)n(-c2cc(N3CCN(C(=O)c4cccc(Br)c4)CC3)ccc2[N+](=O)[O-])n1 | inconclusive: 39.8 µM [inhibitor, single point] |  |
| O=C(O)CCc1ccc(-c2ccc(Cl)cc2)o1 | inconclusive: 15.8 µM [inhibitor, full curve, poor fit] |  |
| CCOC(=O)CSC1=C(C#N)C(=O)NC(c2ccc(OC)cc2)S1 (stereo unspecified) | inconclusive: 28.2 µM [inhibitor, single point] |  |

| Compound | Potency | activity, negative = inhibition |
| --- | --- | --- |
| CCc1nc(SCC(=O)N2CCN(C(=O)c3ccco3)CC2)c2c3c(sc2n1)CCCC3 | inconclusive: 89.1 µM [inhibitor, single point] |  |
| CC(=O)NC(=S)Nc1sc2c(c1C#N)CCCCC2 |  | inactive: 111% |
| CCOc1cc(/C=C2/SC(=S)N(CC3CCCO3)C2=O)ccc1O (stereo unspecified) | active: 28.2 µM |  |
| Cc1ccc2nc(C)c(C(=O)N/N=C/c3ccccc3[N+](=O)[O-])cc2c1 |  | inactive: 23.1% |
| CCc1ccccc1N(C)C |  | inactive: 26.3% |
| O=C(COC(=O)c1ccc([N+](=O)[O-])o1)NCc1ccc(F)cc1 | inconclusive: 28.2 µM [inhibitor, single point] |  |
| O=C(C1CCCO1)N1CCN(c2ncccn2)CC1 (stereo unspecified) | inconclusive: 89.1 µM [inhibitor, single point] |  |
| NCC(O)c1ccc(O)c(O)c1 (stereo unspecified) | active: 35.5 µM |  |
| Cc1cccn2c(=O)cc(CSc3nnc(NC(=O)COc4ccccc4)s3)nc12 | inconclusive: 89.1 µM [inhibitor, single point] |  |
| CCC1=NN2C(=N)/C(=C\c3cccn3-c3ccc(C)cc3C)C(=O)N=C2S1 | inconclusive: 39.8 µM [inhibitor, single point] |  |
| c1ccc(NC2=NCCN2CCCC2CCCCC2)cc1 | inconclusive: 31.6 µM [inhibitor, partial curve, poor fit] |  |
| CNC(=O)c1c(NC(=O)c2nc(SCc3ccc(C)cc3)ncc2Cl)sc2c1CCCC2 |  | inactive: 8.24% |
| O=CC(O)C1OC(=O)C(O)C1O (stereo unspecified) | active: 44.7 µM |  |
| CN(C)c1ccc(/C=C/C=C/c2ccnc3ccccc23)cc1 | inconclusive: 79.4 µM [inhibitor, partial curve] |  |
| CCCS(=O)(=O)c1ncc(Cl)c(C(=O)Nc2c(C(=O)Nc3ccccc3)oc3ccccc23)n1 | inconclusive: 35.5 µM [inhibitor, partial curve, poor fit] |  |
| O=C1CN(C(=O)CSc2nc3ccccc3c(=O)n2Cc2ccc(F)cc2)c2ccccc2N1 | inconclusive: 20 µM [inhibitor, partial curve, poor fit] |  |
| O=C(NCCc1csc(-c2cccnc2)n1)c1ccc(Br)o1 | inconclusive: 79.4 µM [inhibitor, single point] |  |
| CCN(c1ccccc1C)S(=O)(=O)c1nnc(NC(=O)c2ccco2)s1 | inconclusive: 79.4 µM [inhibitor, single point] |  |
| Cc1sc(NC(=O)c2cc3ccccc3oc2=O)c(C(=O)OC(C)C)c1-c1ccccc1 | inconclusive: 39.8 µM [inhibitor, single point] |  |
| CC(=O)c1cccc(NC(=O)c2cc(C)nc3c2c(C)nn3-c2cccc(Cl)c2C)c1 |  | inactive: 12.8% |
| O=C(Nc1ccc(S(=O)(=O)NCc2ccco2)cc1)C1CCCCC1 | inconclusive: 31.6 µM [inhibitor, partial curve, poor fit] |  |
| N#Cc1c(-c2ccco2)cc(-c2ccccc2)[nH]c1=O | active: 10 µM |  |

From PubChem BioAssay AID588590 (National Center for Advancing Translational Sciences (NCATS), 2011)
